These are yes or no findings as the source states them, for the method shown. Some entries that bind do so weakly or less than the wild type. Sequences can lack the tags named with a protein.

The chains behind the UniProt entries cited, without tags or fusion partners. Residues count along the entry.
UniProt Q96G97, residues 1-310: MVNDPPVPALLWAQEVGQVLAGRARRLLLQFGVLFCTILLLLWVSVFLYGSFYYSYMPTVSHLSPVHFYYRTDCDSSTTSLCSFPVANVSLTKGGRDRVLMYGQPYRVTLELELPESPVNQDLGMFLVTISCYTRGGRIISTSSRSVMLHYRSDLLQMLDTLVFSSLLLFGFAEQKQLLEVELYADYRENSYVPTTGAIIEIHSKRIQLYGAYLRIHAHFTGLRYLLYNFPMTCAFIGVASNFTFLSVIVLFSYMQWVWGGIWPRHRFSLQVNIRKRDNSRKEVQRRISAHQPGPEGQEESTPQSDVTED

The experiment concerns the target T1, LDAF1-FLAG (human) (UniProt Q96B96).
T1 sequence: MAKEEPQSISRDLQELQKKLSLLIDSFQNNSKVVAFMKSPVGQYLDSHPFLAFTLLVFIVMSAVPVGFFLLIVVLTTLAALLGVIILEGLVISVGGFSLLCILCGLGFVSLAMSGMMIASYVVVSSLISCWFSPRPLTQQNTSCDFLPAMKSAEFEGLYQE
Description: co-purification (anti-FLAG affinity, then SEC); LDAF1-FLAG and seipin (1–310) co-expressed in Expi293F; cells treated with DGAT1 and DGAT2 inhibitors and Triacsin C; membranes solubilised in 1% LMNG; anti-FLAG M2 resin, eluted with 3xFLAG peptide; Superose 6; 4°C; seipin then seen by cryo-EM.

Take “seipin (1–310) (from UniProt Q96G97 1-310) (domain or fragment)”: the binding result is reported as “binds”.

The values above are taken from paper PMC9122495, “Seipin transmembrane segments critically function in triglyceride nucleation and lipid droplet budding from the membrane” (eLife, 2022).
